Reference: publication PMC5529448
Results are given in words; binding and its absence hold for the method and conditions named. Values belong to the substance of their own block, whether it stands above or below them.

Amino acid sequences for entries named in this document (tags omitted). A change or cut given only in a name is not applied to a line headed by its entry.
UniProt P02689: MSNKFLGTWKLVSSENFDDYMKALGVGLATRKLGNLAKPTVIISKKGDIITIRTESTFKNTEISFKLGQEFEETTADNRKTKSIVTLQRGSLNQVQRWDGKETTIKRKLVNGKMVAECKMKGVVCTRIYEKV

Legend:
[1] = target: human myelin protein P2 I43N (human) (UniProt P02689); assay: SEC; Superdex 75 pg 16/600; 0.3 M NaCl, 1 mM DTT, 20 mM HEPES pH 7.5; last step of purification; both purified
[2] = target: human myelin protein P2 I43N (human) (UniProt P02689); assay: dynamic light scattering; triplicates at +25 °C; 0.6–0.9 mg/ml protein; 0.3 M NaCl, 20 mM HEPES pH 7.5; proteins stored on ice for 24 h after SEC; both purified
[3] = target: human myelin protein P2 I52T (human) (UniProt P02689); assay: SEC; Superdex 75 pg 16/600; 0.3 M NaCl, 1 mM DTT, 20 mM HEPES pH 7.5; last step of purification; both purified
[4] = target: human myelin protein P2 I52T (human) (UniProt P02689); assay: dynamic light scattering; triplicates at +25 °C; 0.6–0.9 mg/ml protein; 0.3 M NaCl, 20 mM HEPES pH 7.5; proteins stored on ice for 24 h after SEC; both purified
[5] = target: human myelin protein P2, wild type (human) (UniProt P02689); assay: as above

binding [1]: no binding | binding [2]: no binding (tested: 0.6–0.9 mg/ml)
Substance: human myelin protein P2 I43N (from UniProt P02689 1-132)

binding [3]: no binding | binding [4]: no binding (tested: 0.6–0.9 mg/ml)
Substance: human myelin protein P2 I52T (from UniProt P02689 1-132)

binding [5]: no binding (tested: 0.6–0.9 mg/ml)
Substance: human myelin protein P2, wild type (from UniProt P02689 1-132)
